For four molecules, survivor count results are on record in PubChem BioAssay AID186 (DTP/NCI, 2004).

The assay concerns B6D2F1 mice, nontumored toxicity test, survival. The experiment in a line: NCI In Vivo Anticancer Drug Screen. Data for tumor model Nontumored Animals (Toxicity Test) in B6D2F1 (BDF1) mice.

The structures appear in SMILES notation. The mice bore no tumour; each value counts animals alive of those treated. Survivors were counted at the toxicity check, usually on the fifth day, unless a day is given; later deaths do not show. Schedules are NCI's codes, taken here to give the interval after Q, in days (D) or hours (H), and the number of doses after X. Additions like (4×) count equal records among those shown.

`OCC1OC(n2cnc3c2NC=NC[C@H]3O)CC1O` (stereo not given in full): the survivor count is 10 of 10 (dose: 0.25 mg/kg/injection, schedule: Q01DX009 (ip), vehicle: saline); 10 of 10 (dose: 0.5 mg/kg/injection, schedule: Q01DX009 (ip), vehicle: saline); 10 of 10 (dose: 1.0 mg/kg/injection, schedule: Q01DX009 (ip), vehicle: saline); 10 of 10 (dose: 2.0 mg/kg/injection, schedule: Q01DX009 (ip), vehicle: saline).
In the case of `COc1cccc2c1C(=O)c1c(O)c3c(c(O)c1C2=O)C[C@@](O)(C(C)=O)C[C@@H]3OC1CC(NC(C)=O)C(O)C(C)O1` (stereo not given in full), the survivor count reads like this: (dose: 1.25 mg/kg/injection, schedule: Q03HX016 (ip), vehicle: other) 6 of 6; (dose: 1.25 mg/kg/injection, schedule: Q03HX024 (ip), vehicle: other) 6 of 6; (dose: 2.5 mg/kg/injection, schedule: Q03HX008 (ip), vehicle: other) 6 of 6; (dose: 2.5 mg/kg/injection, schedule: Q03HX016 (ip), vehicle: other) 6 of 6; (dose: 2.5 mg/kg/injection, schedule: Q03HX024 (ip), vehicle: other) 6 of 6; (dose: 5.0 mg/kg/injection, schedule: Q01DX009 (ip), vehicle: other) 6 of 6. Besides, the survivor count (dose: 5.0 mg/kg/injection, schedule: Q01DX009 (oral), vehicle: other) was 6 of 6; the survivor count (dose: 5.0 mg/kg/injection, schedule: Q01DX009 (sc), vehicle: other) is 6 of 6; the survivor count (dose: 5.0 mg/kg/injection, schedule: Q03HX008 (ip), vehicle: other) is on record as 6 of 6; the survivor count (dose: 5.0 mg/kg/injection, schedule: Q03HX016 (ip), vehicle: other) is on record as 6 of 6; the survivor count (dose: 5.0 mg/kg/injection, schedule: Q03HX024 (ip), vehicle: other) was 6 of 6; the survivor count (dose: 10.0 mg/kg/injection, schedule: Q01DX009 (ip), vehicle: other) is 6 of 6. Further, the survivor count (dose: 10.0 mg/kg/injection, schedule: Q01DX009 (oral), vehicle: other) is listed as 6 of 6; the survivor count (dose: 10.0 mg/kg/injection, schedule: Q01DX009 (sc), vehicle: other) is on record as 6 of 6; the survivor count (dose: 10.0 mg/kg/injection, schedule: Q03HX008 (ip), vehicle: other) is 6 of 6; the survivor count (dose: 10.0 mg/kg/injection, schedule: Q03HX016 (ip), vehicle: other) is recorded as 6 of 6; the survivor count (dose: 10.0 mg/kg/injection, schedule: Q03HX024 (ip), vehicle: other) is 5 of 6; the survivor count (dose: 20.0 mg/kg/injection, schedule: Q01DX009 (ip), vehicle: other) is reported as 6 of 6. Moreover, the survivor count is 6 of 6 (dose: 20.0 mg/kg/injection, schedule: Q01DX009 (oral), vehicle: other); 5 of 6 (dose: 20.0 mg/kg/injection, schedule: Q01DX009 (sc), vehicle: other); 6 of 6 (dose: 20.0 mg/kg/injection, schedule: Q03HX008 (ip), vehicle: other); 6 of 6 (dose: 20.0 mg/kg/injection, schedule: Q03HX016 (ip), vehicle: other); 6 of 6 (dose: 20.0 mg/kg/injection, schedule: Q03HX024 (ip), vehicle: other); 6 of 6 (dose: 40.0 mg/kg/injection, schedule: Q01DX001 (ip), vehicle: other). In addition, the survivor count (dose: 40.0 mg/kg/injection, schedule: Q01DX001 (oral), vehicle: other) is recorded as 6 of 6; the survivor count (dose: 40.0 mg/kg/injection, schedule: Q01DX001 (sc), vehicle: other) is on record as 6 of 6; the survivor count (dose: 40.0 mg/kg/injection, schedule: Q01DX009 (ip), vehicle: other) is given as 6 of 6; the survivor count (dose: 40.0 mg/kg/injection, schedule: Q01DX009 (oral), vehicle: other) is on record as 6 of 6; the survivor count (dose: 40.0 mg/kg/injection, schedule: Q01DX009 (sc), vehicle: other) is reported as 6 of 6; the survivor count (dose: 40.0 mg/kg/injection, schedule: Q03HX008 (ip), vehicle: other) was 6 of 6. Also, the survivor count is reported as 6 of 6 (dose: 40.0 mg/kg/injection, schedule: Q04DX003 (ip), vehicle: other); 6 of 6 (dose: 40.0 mg/kg/injection, schedule: Q08DX002 (ip), vehicle: other); 6 of 6 (dose: 80.0 mg/kg/injection, schedule: Q01DX001 (ip), vehicle: other); 6 of 6 (dose: 80.0 mg/kg/injection, schedule: Q01DX001 (oral), vehicle: other); 6 of 6 (dose: 80.0 mg/kg/injection, schedule: Q01DX001 (sc), vehicle: other); 6 of 6 (dose: 80.0 mg/kg/injection, schedule: Q01DX009 (ip), vehicle: other). In addition, the survivor count is given as 6 of 6 (dose: 80.0 mg/kg/injection, schedule: Q01DX009 (oral), vehicle: other); 6 of 6 (dose: 80.0 mg/kg/injection, schedule: Q01DX009 (sc), vehicle: other); 6 of 6 (dose: 80.0 mg/kg/injection, schedule: Q04DX003 (ip), vehicle: other); 6 of 6 (dose: 80.0 mg/kg/injection, schedule: Q08DX002 (ip), vehicle: other); 6 of 6 (dose: 160.0 mg/kg/injection, schedule: Q01DX001 (ip), vehicle: other); 6 of 6 (dose: 160.0 mg/kg/injection, schedule: Q01DX001 (oral), vehicle: other). Besides, the survivor count by setting is: (dose: 160.0 mg/kg/injection, schedule: Q01DX001 (sc), vehicle: other) 6 of 6; (dose: 160.0 mg/kg/injection, schedule: Q01DX009 (ip), vehicle: other) 6 of 6; (dose: 160.0 mg/kg/injection, schedule: Q01DX009 (oral), vehicle: other) 6 of 6; (dose: 160.0 mg/kg/injection, schedule: Q01DX009 (sc), vehicle: other) 6 of 6; (dose: 160.0 mg/kg/injection, schedule: Q04DX003 (ip), vehicle: other) 6 of 6; (dose: 160.0 mg/kg/injection, schedule: Q08DX002 (ip), vehicle: other) 6 of 6. In addition, the survivor count (dose: 320.0 mg/kg/injection, schedule: Q01DX001 (ip), vehicle: other) is reported as 6 of 6; the survivor count (dose: 320.0 mg/kg/injection, schedule: Q01DX001 (oral), vehicle: other) was 6 of 6; the survivor count (dose: 320.0 mg/kg/injection, schedule: Q01DX001 (sc), vehicle: other) was 6 of 6; the survivor count (dose: 320.0 mg/kg/injection, schedule: Q04DX003 (ip), vehicle: other) was 6 of 6; the survivor count (dose: 320.0 mg/kg/injection, schedule: Q08DX002 (ip), vehicle: other) is 6 of 6.
Regarding `N#Cc1cn(C2OC(CO)C(O)C2O)c2ncnc(N)c12` (stereo not given), the survivor count is, setting by setting: (dose: 0.01 mg/kg/injection, schedule: Q06HX024 (ip), vehicle: saline) 8 of 8; (dose: 0.02 mg/kg/injection, schedule: Q06HX024 (ip), vehicle: saline) 8 of 8; (dose: 0.05 mg/kg/injection, schedule: Q06HX024 (ip), vehicle: saline) 8 of 8; (dose: 0.1 mg/kg/injection, schedule: Q06HX024 (ip), vehicle: saline) 8 of 8; (dose: 0.2 mg/kg/injection, schedule: Q06HX024 (ip), vehicle: saline) 7 of 8; (dose: 0.4 mg/kg/injection, schedule: Q06HX024 (ip), vehicle: saline) 3 of 8.
Take `O=NN(CCCl)C(=O)NCCCl`: the survivor count was 4 of 4 (dose: 2.5 mg/kg/injection, schedule: Q04DX003 (ip), vehicle: saline + alcohol); 4 of 4 (dose: 5.0 mg/kg/injection, schedule: Q04DX003 (ip), vehicle: saline + alcohol); 4 of 4 (dose: 8.0 mg/kg/injection, schedule: Q01DX001 (ip), vehicle: saline + alcohol); 10 of 10 (dose: 9.4 mg/kg/injection, schedule: Q01DX001 (ip), vehicle: saline + alcohol); 4 of 4 (dose: 10.0 mg/kg/injection, schedule: Q04DX003 (ip), vehicle: saline + alcohol); 4 of 4 (dose: 16.0 mg/kg/injection, schedule: Q01DX001 (ip), vehicle: saline + alcohol). The survivor count is 10 of 10 (dose: 18.75 mg/kg/injection, schedule: Q01DX001 (ip), vehicle: saline + alcohol); 10 of 10 (dose: 20.0 mg/kg/injection, schedule: Q01DX001 (ip), vehicle: saline + alcohol); 4 of 4 (dose: 20.0 mg/kg/injection, schedule: Q04DX003 (ip), vehicle: saline + alcohol); 8 of 8 (dose: 24.0 mg/kg/injection, schedule: Q01DX009 (sc), vehicle: saline); 10 of 10 (2×) (dose: 30.0 mg/kg/injection, schedule: Q01DX001 (ip), vehicle: saline + alcohol); 4 of 4 (dose: 32.0 mg/kg/injection, schedule: Q01DX001 (ip), vehicle: saline + alcohol). For the same molecule, the survivor count is 10 of 10 (dose: 37.5 mg/kg/injection, schedule: Q01DX001 (ip), vehicle: saline + alcohol); 10 of 10 (2×) (dose: 40.0 mg/kg/injection, schedule: Q01DX001 (ip), vehicle: saline + alcohol); 8 of 8 (dose: 48.0 mg/kg/injection, schedule: Q01DX009 (sc), vehicle: saline); 4 of 4 (dose: 64.0 mg/kg/injection, schedule: Q01DX001 (ip), vehicle: saline + alcohol); 10 of 10 (dose: 75.0 mg/kg/injection, schedule: Q01DX001 (ip), vehicle: saline + alcohol).
